Reference: article PMC4484454
No constants are given. Whether binding was seen depends on the method and setting. In cells and extracts the contact can be indirect. Some results given as binding are weak or reduced against the parent protein; the word gives no strength.

The chains behind the UniProt entries cited, without tags or fusion partners.
UniProt Q01094: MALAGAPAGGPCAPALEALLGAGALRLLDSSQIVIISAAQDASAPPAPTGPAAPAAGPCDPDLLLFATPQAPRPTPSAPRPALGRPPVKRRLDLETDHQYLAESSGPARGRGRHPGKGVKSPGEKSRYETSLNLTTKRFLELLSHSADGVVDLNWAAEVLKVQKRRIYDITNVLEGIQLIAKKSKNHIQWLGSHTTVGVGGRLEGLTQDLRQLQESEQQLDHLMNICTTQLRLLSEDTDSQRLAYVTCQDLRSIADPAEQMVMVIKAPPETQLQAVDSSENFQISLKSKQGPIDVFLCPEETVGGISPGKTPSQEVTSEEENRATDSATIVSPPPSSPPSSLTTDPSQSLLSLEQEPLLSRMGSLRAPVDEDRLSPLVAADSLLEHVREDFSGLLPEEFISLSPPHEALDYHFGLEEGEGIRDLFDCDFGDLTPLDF
UniProt Q13547: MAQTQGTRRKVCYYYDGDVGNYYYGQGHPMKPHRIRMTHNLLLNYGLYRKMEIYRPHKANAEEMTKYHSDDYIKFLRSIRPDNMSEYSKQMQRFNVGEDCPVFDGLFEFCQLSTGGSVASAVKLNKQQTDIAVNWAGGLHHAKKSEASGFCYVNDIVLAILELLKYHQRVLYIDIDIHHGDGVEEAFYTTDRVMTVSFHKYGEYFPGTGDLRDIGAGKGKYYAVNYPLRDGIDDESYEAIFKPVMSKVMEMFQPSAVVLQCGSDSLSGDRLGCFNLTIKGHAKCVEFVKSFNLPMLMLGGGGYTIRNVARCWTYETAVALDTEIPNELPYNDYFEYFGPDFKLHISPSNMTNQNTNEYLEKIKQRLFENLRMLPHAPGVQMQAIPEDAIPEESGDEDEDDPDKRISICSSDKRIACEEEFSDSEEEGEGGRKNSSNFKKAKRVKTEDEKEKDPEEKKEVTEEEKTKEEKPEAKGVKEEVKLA

Biological target: E2F1 (human (endogenous in PC3 and 5637)) (UniProt Q01094)
Experiment: co-IP; lysates of PC3 and 5637 cells in CHAPS buffer (25 mM HEPES, 2 mM EGTA, 2.5 mM MgCl2, 0.3% CHAPS); 500 ug lysate, 3 ug anti-E2F1 antibody with protein A/G agarose overnight at 4°C; blot for HDAC1

HDAC1 (from UniProt Q13547 1-482)
binding: binds
